Laboratory results: PubChem BioAssay AID1259254 (NCATS, 2017)
This is an unselected part of about 59,000 reagents tested. About 1,550 of them (2.6%) count as active. 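G2 share is only a proxy for re-replication; each gene was hit by three separate siRNAs, and active genes were retested.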 The numbers tell different reagents against one gene apart. Not all columns of the deposit are shown. No sequences are given here. Not given: the amount of reagent.

- Assay: 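Genome-wide screen for genes that prevent DNA re-replication in cancer cells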 (primary screen)
- System: human HCT116 colorectal cancer cells
- Reagent: single siRNA against human genes
- Time to read-out: 3 days
- Detection: 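Imaged Hoechst DNA stain sorts each cell into a cycle phase by DNA amount; per plate, G2 fraction set to 0% for non-targeting and 100% for GMNN siRNA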
- Direction: G2 robust z-score: higher = more G2 cells, more excess DNA replication
- Hit rule: 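An siRNA counts as active if its G2 robust z-score lies at least 5 MADs above the screen median; here such calls match roughly 38% of GMNN control or more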

gene,siRNA no.,G2 robust z-score,call
ELAC2,1,1.55,inactive
ELAC2,2,0.309,inactive
ELAC2,3,-0.216,inactive
CEMIP,1,0.00379,inactive
CEMIP,2,-0.555,inactive
CEMIP,3,1.71,inactive
TRIM53BP,1,-0.0748,inactive
TRIM53BP,2,-0.652,inactive
TRIM53BP,3,-0.341,inactive
ZNF789,1,3.72,inactive
ZNF789,2,2.02,inactive
ZNF789,3,-1.07,inactive
USP25,1,3.36,inactive
USP25,2,0.554,inactive
USP25,3,0.336,inactive
H2AC12,1,-0.493,inactive
H2AC12,2,1.53,inactive
H2AC12,3,1.42,inactive
LIPC,1,-0.22,inactive
LIPC,2,0.00173,inactive
LIPC,3,-0.117,inactive
PHF10,1,3.67,inactive
PHF10,2,2.9,inactive
PHF10,3,-0.759,inactive
BUD31,1,-0.512,inactive
BUD31,2,0.906,inactive
BUD31,3,1.72,inactive
OPRD1,1,-0.47,inactive
OPRD1,2,0.871,inactive
OPRD1,3,-1.04,inactive
REM2,1,-0.597,inactive
REM2,2,0.178,inactive
REM2,3,-0.124,inactive
RBCK1,1,-0.15,inactive
RBCK1,2,-0.0999,inactive
RBCK1,3,2.93,inactive
SPATA25,1,0.678,inactive
SPATA25,2,-0.694,inactive
SPATA25,3,1.08,inactive
ACTN4,1,0.0545,inactive
ACTN4,2,0.211,inactive
ACTN4,3,-1.3,inactive
ELOF1,1,-0.0567,inactive
ELOF1,2,0.2,inactive
ELOF1,3,1.17,inactive
ZNF536,1,0.0797,inactive
ZNF536,2,-1.5,inactive
ZNF536,3,-0.803,inactive
UACA,1,-0.834,inactive
UACA,2,-0.823,inactive
UACA,3,-0.544,inactive
FHAD1,1,0.957,inactive
FHAD1,2,-1.06,inactive
FHAD1,3,-0.851,inactive
TFE3,1,-1.07,inactive
TFE3,2,0.516,inactive
TFE3,3,-0.0756,inactive
ALDOC,1,-0.0473,inactive
ALDOC,2,3.53,inactive
ALDOC,3,1.59,inactive
PGAP6,1,-0.425,inactive
PGAP6,2,-0.947,inactive
PGAP6,3,3.31,inactive
FAM53A,1,-0.304,inactive
FAM53A,2,-0.0964,inactive
FAM53A,3,0.991,inactive
SLC12A5,1,-1.45,inactive
SLC12A5,2,-0.764,inactive
SLC12A5,3,-0.987,inactive

Sorted by “G2 robust z-score” (highest first): some entries from above.
gene,siRNA no.,G2 robust z-score,call
PHF10,1,3.67,inactive
H2AC12,3,1.42,inactive
LIPC,2,0.00173,inactive
LIPC,3,-0.117,inactive
LIPC,1,-0.22,inactive
